Experimental data reported in PubChem BioAssay (NCATS).
Where “and” joins values, the source holds several entries; their conditions need not be identical. Identical values can stand only once. The list shows a part of the results. The main result of the screen is listed elsewhere. These columns were measured beside it and carry no call. Most of these compounds were active or inconclusive in the main read-out, so they are no random draw. For some of these results: Words in brackets tell the shape of the fitted curve; partial curves, single points and poor fits give uncertain potencies.

Experiment: qHTS Assay for Inhibitors of PDE-IV (AID 607)
Details: HEK293 ACTOne CNG channel cells, membrane potential fluorescence; measured here: parental cell counter-screen
Summary of the method: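 The readout is membrane depolarisation from a cAMP-sensing CNG channel, detected with a potential dye at ex 535/em 590. Cells were HEK293-derived (endogenous PDE-IV) at 1000 cells/well, titrated up to 22.9 uM final.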

Row | Compound | AC50
1 | CN1CCN(C2=Cc3ccccc3Oc3ccc(Cl)cc32)CC1 | 31.6 µM [rising, partial curve, poor fit]
2 | CN(C)Cc1ccccc1-c1nc(NC2CC2)c2ccccc2n1 | 12.6 µM [rising, single point]
3 | O[C@H](CN1CCN(c2cccc(Cl)c2)CC1)C(c1ccccc1)c1ccccc1 | 15.8 µM [rising, partial curve]
4 | COc1cccc(Cn2c(=O)c(-c3cccs3)nc3cnc(Nc4ccccc4)nc32)c1 | 3.98 µM [rising, single point]
5 | c1ccc(N2CCN(CCCOc3ccc4c(c3)OCO4)CC2)cc1 | 12.6 µM [rising, partial curve]
6 | Cc1nc2cnc(OCc3ccccc3)nc2n(CCc2ccccc2)c1=O | 12.6 µM [rising, partial curve]
7 | COc1cccc(Cn2c(=O)c(-c3ccccc3)nc3cnc(N(C)C)nc32)c1 | 0.0631 µM [rising, single point]
8 | COc1ccc(CNc2nc(-c3ccccc3CN(C)C)nc3ccccc23)c(OC)c1 | 7.94 µM [rising, partial curve]
9 | COC(=O)N1CCC2(CCN(C(=O)Nc3ccc(OC)cc3)CC2)CC1 | 15.8 µM [rising, single point]
10 | O=C(Nc1ccccc1)N1CCCC2(CCN(C(=O)c3cccc(F)c3)CC2)C1 | 1.26 µM [rising, partial curve]
11 | c1cc2c3c(c1)c1c(n3CCNC2)CCCC1 | 6.31 µM [rising, partial curve, poor fit]
12 | Cc1cccc(CNc2cc(-c3ccccc3C)ncn2)c1 | 15.8 µM [rising, single point]
13 | CC(=O)Oc1cc(C(F)(F)F)ccc1C(=O)O | 5.01 µM [rising, partial curve]
14 | O=C(c1ccco1)N1CCC2(CCN(Cc3cc(C(F)(F)F)cc(C(F)(F)F)c3)CC2)CC1 | 12.6 µM [rising, single point]
15 | COC(=O)N1CCC2(CCCN(C(=O)Nc3ccccc3)C2)CC1 | 0.0316 µM [falling, full curve, poor fit]
16 | Cn1cccc1C(=O)N1CCC2(CCCN(c3ncccn3)C2)CC1 | 3.98 µM [rising, single point]
17 | COc1cccc(NC(=O)/C=C\c2ccc(Cl)cc2)c1 | 15.8 µM [rising, single point]
18 | COc1ccc(CNc2ccnc(-c3ccccc3OC)n2)c(OC)c1 | 12.6 µM [rising, single point]
19 | CCCCC[C@H](O)C=C[C@H]1[C@H](O)CC(=O)[C@H]1CCCCCCC(=O)O | 5.01 µM [rising, partial curve, poor fit]
20 | Cc1cccc(CNc2ccnc(-c3cccc(C#N)c3)n2)c1 | 15.8 µM [rising, single point]
21 | CNCCCCCCCCSc1nc(C(C)C)ccc1C(=O)c1cccs1 | 15.8 µM [rising, single point]
22 | CC(C)(Oc1ccc(Cl)cc1)C(=O)O | 10 µM [rising, partial curve]
23 | COc1ccccc1CNc1ncncc1-c1ccccc1C(F)(F)F | 10 µM [rising, single point]
24 | c1ccc(CNc2ncncc2-c2ccc3c(c2)OCO3)cc1 | 7.94 µM [rising, partial curve]
25 | c1ccc(-c2ccc(N3CCCC4(CCNCC4)C3)cc2)cc1 | 1 µM [rising, partial curve]
26 | N#Cc1cccc(NC(=O)N2CCCC3(CCN(C(=O)c4csnn4)CC3)C2)c1 | 0.398 µM [rising, single point]
27 | COc1cccc(-c2nccc(NCc3cccs3)n2)c1 | 7.94 µM [rising, partial curve]
28 | CSc1ccc2c(c1)[C@H](N1CCN(C)CC1)Cc1ccccc1S2 | 15.8 µM [rising, single point]
29 | COc1cccc(-c2ccc3ncnc(NCc4ccc(OC)cc4OC)c3c2)c1 | 10 µM [rising, single point]
30 | O=C(c1cccc(F)c1)N1CCC2(CC1)CCN(c1ccccn1)CC2 | 15.8 µM [rising, single point]

Experiment: qHTS Assay for Lipid Storage Modulators (AID 1519)
Details: Drosophila S3 cells, BODIPY lipid droplet/cell ratio, laser cytometry; measured here: cell count channel max response; cells loaded with oleic acid
Summary of the method: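 Cells seeded at 5,000 per well were treated with compounds over a concentration series and loaded with oleic acid (400 uM, as added). Lipid droplet fluorescence (488 nm excitation, 500-530 nm channel) was read by laser-scanning cytometry and normalized to 20 uM Triacsin C.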

Row | Compound | max response
31 | CN1CCN(C2=Cc3ccccc3Oc3ccc(Cl)cc32)CC1 | 44.8%
32 | CN(C)Cc1ccccc1-c1nc(NC2CC2)c2ccccc2n1 | 19.4%
33 | O=C(/C=C/C=C/c1ccc2c(c1)OCO2)N1CCCCC1 | 22.9%
34 | O[C@H](CN1CCN(c2cccc(Cl)c2)CC1)C(c1ccccc1)c1ccccc1 | 74.3%
35 | COc1cccc(Cn2c(=O)c(-c3cccs3)nc3cnc(Nc4ccccc4)nc32)c1 | 44.6%
36 | N[C@@H](Cc1ccccc1)C(=O)O | 25.5%
37 | c1ccc(N2CCN(CCCOc3ccc4c(c3)OCO4)CC2)cc1 | 114%
38 | Cc1nc2cnc(OCc3ccccc3)nc2n(CCc2ccccc2)c1=O | 9.14%
39 | COc1cccc(Cn2c(=O)c(-c3ccccc3)nc3cnc(N(C)C)nc32)c1 | 0.719%
40 | COc1ccc(CNc2nc(-c3ccccc3CN(C)C)nc3ccccc23)c(OC)c1 | -22.6%
41 | COC(=O)N1CCC2(CCN(C(=O)Nc3ccc(OC)cc3)CC2)CC1 | 16%
42 | O=C(Nc1ccccc1)N1CCCC2(CCN(C(=O)c3cccc(F)c3)CC2)C1 | 19.6%
43 | c1cc2c3c(c1)c1c(n3CCNC2)CCCC1 | 90.9%
44 | Cc1cccc(CNc2cc(-c3ccccc3C)ncn2)c1 | -14.4%
45 | CC(=O)Oc1cc(C(F)(F)F)ccc1C(=O)O | 0.451%
46 | O=C(c1ccco1)N1CCC2(CCN(Cc3cc(C(F)(F)F)cc(C(F)(F)F)c3)CC2)CC1 | 8.3%
47 | COC(=O)N1CCC2(CCCN(C(=O)Nc3ccccc3)C2)CC1 | 10.2%
48 | Cn1cccc1C(=O)N1CCC2(CCCN(c3ncccn3)C2)CC1 | 19.5%
49 | COc1cccc(NC(=O)/C=C\c2ccc(Cl)cc2)c1 | 48.6%
50 | CC(=O)O[C@H]1C(=O)[C@@]2(C)[C@H]([C@H](OC(=O)c3ccccc3)[C@]3(O)C[C@H](OC(=O)[C@H](O)[C@@H](NC(=O)c4ccccc4)c4ccccc4)C(C)=C1C3(C)C)[C@]1(OC(C)=O)CO[C@@H]1C[C@@H]2O | 0.493%

Row | Compound | max response
51 | COc1cc(C=O)ccc1O | 9.31%
52 | COc1ccc(CNc2ccnc(-c3ccccc3OC)n2)c(OC)c1 | 10.1%
53 | O=c1c(O)c(-c2ccc(O)cc2O)oc2cc(O)cc(O)c12 | 42.3% and 6.24%
54 | CCCCC[C@H](O)C=C[C@H]1[C@H](O)CC(=O)[C@H]1CCCCCCC(=O)O | 27.1%
55 | Cc1cccc(CNc2ccnc(-c3cccc(C#N)c3)n2)c1 | 0.695%
56 | CNCCCCCCCCSc1nc(C(C)C)ccc1C(=O)c1cccs1 | 32.2%
57 | CC(=O)OCC(COC(C)=O)OC(C)=O | 17.3%
58 | CC(C)(Oc1ccc(Cl)cc1)C(=O)O | 45.3% and 23.4%
59 | COc1ccccc1CNc1ncncc1-c1ccccc1C(F)(F)F | 25.6%
60 | Nc1ccc(S(=O)(=O)c2ccc(N)cc2)cc1 | 26.3%
61 | c1ccc(CNc2ncncc2-c2ccc3c(c2)OCO3)cc1 | 10.6%
62 | c1ccc(-c2ccc(N3CCCC4(CCNCC4)C3)cc2)cc1 | 11.2%
63 | CCOc1ccc(NC(C)=O)cc1 | 28.7%
64 | O=c1ccc2ccccc2o1 | 23.5%
65 | N#Cc1cccc(NC(=O)N2CCCC3(CCN(C(=O)c4csnn4)CC3)C2)c1 | 21.5%
66 | COc1cccc(-c2nccc(NCc3cccs3)n2)c1 | 1.6%
67 | CSc1ccc2c(c1)[C@H](N1CCN(C)CC1)Cc1ccccc1S2 | 44.7%
68 | COc1cccc(-c2ccc3ncnc(NCc4ccc(OC)cc4OC)c3c2)c1 | 17.9%
69 | CC(C)=CCC/C(C)=C/CC/C(C)=C/CO | 24.7% and 19.4%
70 | O=C(c1cccc(F)c1)N1CCC2(CC1)CCN(c1ccccn1)CC2 | 7.31%
